Source: PubChem BioAssay AID720504 (National Center for Advancing Translational Sciences (NCATS), 2013)
Where “and” joins values, the source holds several entries; their conditions need not be identical. Identical values can stand only once. Among all 360,000 compounds or so, about 10,000 (2.8%) were called active. This list was built around the results that the source calls inconclusive (neither active nor inactive); the mix of calls is not that of the screen. Calls come from the whole dose curve; as a rule, active = well fitted inhibition curve with a large enough effect; inconclusive = small, poorly fitted or top-dose-only effect; inactive = flat fitted curve, though single readings scatter. Potencies beside an inconclusive call are fits to weak or partial responses and may not hold up. Some compounds were tested as several samples or in several runs, with calls that do not always agree.

Amino acid sequences for entries named in this document (tags omitted).
UniProt P53350, whole entry, looked up: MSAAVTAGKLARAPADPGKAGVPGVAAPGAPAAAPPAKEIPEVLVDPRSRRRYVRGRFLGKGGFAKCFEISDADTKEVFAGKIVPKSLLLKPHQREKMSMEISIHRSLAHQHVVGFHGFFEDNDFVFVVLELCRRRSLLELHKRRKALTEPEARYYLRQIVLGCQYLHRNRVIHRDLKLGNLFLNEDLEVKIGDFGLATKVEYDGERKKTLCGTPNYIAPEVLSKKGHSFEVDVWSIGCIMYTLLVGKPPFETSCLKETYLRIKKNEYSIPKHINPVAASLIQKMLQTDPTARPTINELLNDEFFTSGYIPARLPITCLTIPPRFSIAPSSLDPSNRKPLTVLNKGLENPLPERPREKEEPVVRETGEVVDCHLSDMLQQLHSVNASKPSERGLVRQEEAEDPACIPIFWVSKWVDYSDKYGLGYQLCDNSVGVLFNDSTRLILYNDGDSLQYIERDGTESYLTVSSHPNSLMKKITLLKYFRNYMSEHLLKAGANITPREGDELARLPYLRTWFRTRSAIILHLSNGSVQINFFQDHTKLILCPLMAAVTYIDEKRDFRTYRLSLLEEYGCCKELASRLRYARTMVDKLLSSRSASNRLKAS

molecular target: Serine/threonine-protein kinase PLK1 (Homo sapiens) (UniProt P53350); test: qHTS for Inhibitors of PLK1-PDB (polo-like kinase 1 - polo-box domain): Primary Screen; conditions: Plk1 PBD binding of FITC phosphopeptide, fluorescence polarization; note: nearly all actives have a fitted effect of over 65% in size; for max response, negative = inhibition: series mostly up to about 57 µM
% is set by controls: 0 for no effect and ±100 for the full control effect; potency is the fitted concentration of half-maximal effect.

| Compound | Potency | max response, negative = inhibition |
| --- | --- | --- |
| Cc1ccc(NC(=O)c2sc3ncn(CC(=O)N4CCN(c5ccccn5)CC4)c(=O)c3c2C)cc1 | inconclusive: 23.8 µM [inhibitor, partial curve, poor fit] | – |
| COc1cc(OC)cc(C(=O)NC(=S)Nc2ccc3oc(=O)ccc3c2)c1 | inconclusive: 23.8 µM [inhibitor, partial curve] | – |
| O=S(=O)(NCCSc1ccccc1)c1ccc(F)cc1 | active: 23.8 µM | – |
| COC(=O)Cn1c(SCc2ccccc2)nc2ccccc21 | active: 26.7 µM | – |
| Cc1cccc(CS(=O)(=O)c2nnc([C@H](Cc3ccccc3)NC(=O)OC(C)(C)C)o2)c1 | active: 2.67 µM | – |
| Fc1cc(F)cc(-c2oncc2-c2nnnn2-c2ccccc2)c1 | inconclusive: 23.8 µM [inhibitor, single point] | – |
| Cc1ccc(N2C(=O)Nc3cc(Cl)c(Cl)cc3N2O)cc1Cl | inconclusive: 37.7 µM [inhibitor, single point] | – |
| CCOC(=O)c1ccc(N2CCOCC2)c(NS(=O)(=O)c2ccc(F)cc2)c1 | – | inactive: -4.02% |
| C[N+](C)(C)CCOC(=O)C1(c2ccccc2)CCCC1 | inconclusive: 29.9 µM [inhibitor, partial curve] | – |
| NC(=O)c1cc(S(=O)(=O)Nc2cccc(F)c2)co1 | inconclusive: 29.9 µM [inhibitor, single point] | – |
| CN(C)CC(C)(C)CNS(=O)(=O)c1ccc(Cl)c(Cl)c1 | active: 18.9 µM | – |
| CCOC(=O)N1CCN(C(=O)C[C@@H]2C[C@@]3(C(=O)OC)CCCCC=C3N(Cc3ccc4c(c3)OCO4)C2=O)CC1 | – | inactive: -0.31% |
| Cc1ccc(NC(=O)CN2CCC(NC(=O)Cc3ccccc3)CC2)c(C)c1 | inconclusive: 3.77 µM [inhibitor, partial curve, poor fit] | – |
| O=C(CCl)NC(Cc1ccccc1)C(=O)OCC(=O)c1ccc(-c2ccccc2)cc1 (stereo unspecified) | – | inactive: 0.605% |
| C=CCOC(=O)c1[nH]c2c(c1C)C(=O)CC(c1ccco1)C2 (stereo unspecified) | inconclusive: 37.7 µM [inhibitor, single point] | – |
| Cc1cc(C)n(-c2nc(C)nc(N)n2)n1 | active: 11.9 µM | – |
| O=C(CSc1nc(C2CC2)nc2ccccc12)N1c2ccccc2Sc2ccccc21 | inconclusive: 26.7 µM [inhibitor, partial curve] | – |
| Cc1csc(SCC(=O)Nc2cccc3nsnc23)n1 | inconclusive: 29.9 µM [inhibitor, partial curve] | – |
| CCNc1ccc(Br)cc(C(=O)/C=C/c2ccc(Cl)cc2)c1=O | inconclusive: 16.8 µM [inhibitor, partial curve] | – |
| COCCCNc1nc2c(c(=O)n(Cc3ccc(F)cc3)c(=O)n2C)n1C | – | inactive: -1.13% |
| CCN(CC)/C(Sc1ccccc1)=C(/C(Cl)=C(Cl)Cl)[N+](=O)[O-] | inconclusive: 3.36 µM [inhibitor, single point] | – |
| Cc1cc(C(F)(F)F)c(C#N)c(N2CCOCC2)n1 | active: 3.36 µM | – |
| CCN(CC)Cc1cc(Oc2ccc(O)c(CN(CC)CC)c2)ccc1O | – | inactive: -9% |

| Compound | Potency | max response, negative = inhibition |
| --- | --- | --- |
| CCOc1ccc2nc(NCCNC(=O)Nc3cccc(C)c3)c(C#N)cc2c1 | inconclusive: 18.9 µM [inhibitor, partial curve] | – |
| COc1cc(C(c2c(C)[nH][nH]c2=O)c2c(C)[nH][nH]c2=O)ccc1OCc1ccc([N+](=O)[O-])cc1 | inconclusive: 11.9 µM [inhibitor, partial curve] | – |
| O=S1(=O)c2ccccc2Nc2ccccc21 | – | inactive: -1.66% |
| O=C(O)c1ccc(/C=N/NC(=O)c2cc3c(ccc4ccccc43)o2)cc1 | inconclusive: 29.9 µM [inhibitor, single point] | – |
| O=C1C(SCCO)=C(SCCO)C(=O)c2ccccc21 | active: 2.12 µM | – |
| CCCc1c(C(=O)NNc2ccc(C)cc2)cnn1-c1ccccc1 | – | inactive: -2.42% |
| C=CCc1ccccc1OCC(O)CN1CCN(Cc2ccc3c(c2)OCO3)CC1 (stereo unspecified) | – | inactive: 2.39% and inactive: -6.29% |
| Cc1cccn2c(=O)c(/C=N/O)c(N3CCOCC3)nc12 | inconclusive: 18.9 µM [inhibitor, partial curve] | – |
| CC(C)(C)c1cc(-c2n[nH]c(=S)n2-c2ccc(Cl)cc2)n[nH]1 | active: 29.9 µM | – |
| Cc1csc(Nc2ccc(Cl)cc2)[n+]1-c1ccc(Cl)cc1 | inconclusive: 26.7 µM [inhibitor, partial curve] | – |
| O=C(NCCS(=O)(=O)N1CCN(c2ccccc2)CC1)C1CC(=O)N(c2ccc(F)cc2)C1 (stereo unspecified) | – | inactive: -4.65% |
| Fc1ccc(NC(=S)NCCc2ccccn2)cc1 | inconclusive: 23.8 µM [inhibitor, partial curve] | – |
| CC(=O)Nc1ccc(SCc2c(C)noc2C)cc1 | active: 21.2 µM | – |
| CCOc1ccc(/C(CCC(=O)O)=N/NC(=S)NC(C)C)cc1 | inconclusive: 29.9 µM [inhibitor, partial curve] | – |
| CCOc1ccc(C(=O)Nc2ncccc2Cl)cc1 | inconclusive: 4.23 µM [inhibitor, single point] | – |
| C=CCSc1n[nH]c2nc3c(c(=O)n12)C1(CCCC1)Cc1ccccc1-3 | inconclusive: 23.8 µM [inhibitor, partial curve] | – |
| Cc1ccc(Cc2c(-c3cccc(Cl)c3)nc3cc(C)c(Br)c(C)n23)cc1 | – | inactive: -3.95% |
| CC1CCN(CC(=O)Nc2ccccc2C(=O)c2ccccc2)CC1 | – | inactive: -16.3% |
| O=C(NCCc1ccc(Cl)cc1)Nc1ccc(F)cc1 | active: 23.8 µM | – |
| CCN(CC)c1ccc(C(=S)NC2CCCCC2)cc1 | active: 23.8 µM | – |
| COc1ccc(C(=O)OCC(=O)Nc2ccc(F)c(F)c2)cc1OC | inconclusive: 13.4 µM [inhibitor, partial curve] | – |
| COc1ccc(NS(=O)(=O)c2ccc(NC(=S)NC(=O)/C=C/c3ccccc3)cc2)nn1 | inconclusive: 23.8 µM [inhibitor, single point] | – |
| COc1ccc(OC)c(C2Nc3c(Cl)ccc(C(=O)O)c3C3C=CCC32)c1 (stereo unspecified) | inconclusive: 23.8 µM [inhibitor, single point] | – |
